Results as given in article doi:10.1101/2025.10.29.685130.
Results are given in words; binding and its absence hold for the method and conditions named. Binding seen in cells or lysates may run through a third protein. Here binding means that the protein was enriched with, or labelled near, the bait; the list need not be complete.

By UniProt entry, the sequences of proteins in these tests, tags left out.
UniProt P63141: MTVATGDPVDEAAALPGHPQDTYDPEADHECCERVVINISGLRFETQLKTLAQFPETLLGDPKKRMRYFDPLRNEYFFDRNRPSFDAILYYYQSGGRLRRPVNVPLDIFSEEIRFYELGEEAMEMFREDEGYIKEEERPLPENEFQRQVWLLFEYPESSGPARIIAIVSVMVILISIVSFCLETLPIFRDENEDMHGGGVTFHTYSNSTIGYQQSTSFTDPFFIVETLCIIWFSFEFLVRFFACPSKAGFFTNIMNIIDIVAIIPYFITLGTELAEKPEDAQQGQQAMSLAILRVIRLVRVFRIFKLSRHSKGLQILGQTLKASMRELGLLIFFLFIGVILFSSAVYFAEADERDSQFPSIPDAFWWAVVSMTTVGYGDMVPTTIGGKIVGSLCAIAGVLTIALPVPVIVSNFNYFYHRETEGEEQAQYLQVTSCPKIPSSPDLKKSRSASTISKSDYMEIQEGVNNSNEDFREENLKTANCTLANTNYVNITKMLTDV

B1: myristoylated alanine-rich C-kinase substrate (protein, UniProt P26645 1-309)
chain: MGAQFSKTAAKGEATAERPGEAAVASSPSKANGQENGHVKVNGDASPAAAEPGAKEELQANGSAPAADKEEPASGSAATPAAAEKDEAAAATEPGAGAADKEAAEAEPAEPSSPAAEAEGASASSTSSPKAEDGAAPSPSSETPKKKKKRFSFKKSFKLSGFSFKKSKKESGEGAEAEGATAEGAKDEAAAAAGGEGAAAPGEQAGGAGAEGAAGGEPREAEAAEPEQPEQPEQPAAEEPQAEEQSEAAGEKAEEPAPGATAGDASSAAGPEQEAPAATDEAAASAAPAASPEPQPECSPEAPPAPTAE
B2: Arhgef2 (protein, UniProt Q60875 1-985)
chain: MSRIESLTRARIDRSKEQATKTREKEKMKEAKDARYTNGHLFTTISVSGMTMCYACNKSITAKEALICPTCNVTIHNRCKDTLANCTKVKQKQQKAALLRNNTALQSVSLRSKTTTRERPTSAIYPSDSFRQSLLGSRRGLSSLSLAKSVSTTNIAGHFNDESPLGLRQILSQSTDSLNMRNRTLSVESLIDEGVEVFYNELMSDFEMDEKDFEADSWSLAVDSSFLQQHKKEVMKKQDVIYELIQTELHHVRTLKIMTRLFRTGMLEELQMEPEVVQGLFPCVDELSDIHTRFLNQLLERRRQALCPGSTRNFVIHRLGDLLISQFSGSNAEQMRKTYSEFCSRHTKALKLYKELYARDKRFQQFIRKMTRSAVLKRHGVQECILLVTQRITKYPVLINRILQNSHGVEEEYQDLASALGLVKELLSNVDQDVHELEKEARLQEIYNRMDPRAQTPVPGKGPFGRDELLRRKLIHEGCLLWKTATGRFKDVLLLLMTDVLVFLQEKDQKYIFTSLDKPSVVSLQNLIVRDIANQAKGMFLISSGPPEMYEVHAASRDDRTTWIRVIQQSVRLCPSREDFPLIETEDKAYLRRIKTKLQQKNQALVELLQKNVELFAEMVHFQALKAGFVGMPPPALPRGLFRLESFESLRGERLLKDALREVEGLKDLLLGPCVDLPMTSREPALPLDSDSGSCPGVTANGEARTFNGSIELCRADSDSSQKDRNGNQLRSPQEEVLQPLINLYGLLHGLQAVVVQQERLMEALFPEGPERWEKLSRANSRDGEAGRAAVASVTPEKQATELALLQRQHTLLQEELRRCQRLGEERATEAGSLEARLRESEQARALLEREAEEIRRQLAALGQNEPLPAEAPWARRPLDPRRRSLPAGDALYLSFNPPQPSRGHDRLDLPVTVRSLHRPFDDREAQELGSPEDRLQDSSDPDTGSEEEVSSRLSPPHSPRDFTRMQDIPEETESRDGEPTASES
B3: Wiskott-Aldrich syndrome protein family member 1 (protein, UniProt Q8R5H6 1-559)
chain: MPLVKRNIDPRHLCHTALPRGIKNELECVTNISLANIIRQLSSLSKYAEDIFGELFNEAHSFSFRVNSLQERVDRLSVSVTQLDPKEEELSLQDITMRKAFRSSTIQDQQLFDRKTLPIPLQETYDVCEQPPPLNILTPYRDDGKEGLKFYTNPSYFFDLWKEKMLQDTEDKRKEKRKQKQKNLDRPHEPEKVPRAPHDRRREWQKLAQGPELAEDDADLLHKHIEVANGPASHYETRPQTYVDHMDGSYSLSALPFSQMSELLTRAEERVLVRPHEPPPPPPMHGAGDAKPTPTCISSATGLIENRPQSPAAGRTPVFVSPTPPPPPPPLPSALSTSSLRASMTSTPPPPVPPPPPPPATALQAPAVPPPPAPLQIAPGVLHPAPPPIAPPLVQPSPPVARAAPVCETVPVHPLPQGEVQGLPPPPPPPPLPPPGIRPSSPVAVAALAHPPSGLHPAPSTAPGPHAPLMPPSPPSQVLPASEPKRHPSTLPVISDARSVLLEAIRKGIQLRKVEEQREQEAKHERIENDVATILSRRIAVEYSDSEDDSEFDEVDWLE
B4: thioredoxin (protein, UniProt P10639 1-105)
chain: MVKLIESKEAFQEALAAAGDKLVVVDFSATWCGPCKMIKPFFHSLCDKYSNVVFLEVDVDDCQDVAADCEVKCMPTFQFYKKGQKVGEFSGANKEKLEASITEYA
B5: dynamin 1 (protein, UniProt P39053 1-867)
chain: MGNRGMEDLIPLVNRLQDAFSAIGQNADLDLPQIAVVGGQSAGKSSVLENFVGRDFLPRGSGIVTRRPLVLQLVNSTTEYAEFLHCKGKKFTDFEEVRLEIEAETDRVTGTNKGISPVPINLRVYSPHVLNLTLVDLPGMTKVPVGDQPPDIEFQIRDMLMQFVTKENCLILAVSPANSDLANSDALKIAKEVDPQGQRTIGVITKLDLMDEGTDARDVLENKLLPLRRGYIGVVNRSQKDIDGKKDITAALAAERKFFLSHPSYRHLADRMGTPYLQKVLNQQLTNHIRDTLPGLRNKLQSQLLSIEKEVDEYKNFRPDDPARKTKALLQMVQQFAVDFEKRIEGSGDQIDTYELSGGARINRIFHERFPFELVKMEFDEKELRREISYAIKNIHGIRTGLFTPDMAFETIVKKQVKKIREPCLKCVDMVISELISTVRQCTKKLQQYPRLREEMERIVTTHIREREGRTKEQVMLLIDIELAYMNTNHEDFIGFANAQQRSNQMNKKKTSGNQDEILVIRKGWLTINNIGIMKGGSKEYWFVLTAENLSWYKDDEEKEKKYMLSVDNLKLRDVEKGFMSSKHIFALFNTEQRNVYKDYRQLELACETQEEVDSWKASFLRAGVYPERVGDKEKASETEENGSDSFMHSMDPQLERQVETIRNLVDSYMAIVNKTVRDLMPKTIMHLMINNTKEFIFSELLANLYSCGDQNTLMEESAEQAQRRDEMLRMYHALKEALSIIGDINTTTVSTPMPPPVDDSWLQVQSVPAGRRSPTSSPTPQRRAPAVPPARPGSRGPAPGPPPAGSALGGAPPVPSRPGASPDPFGPPPQVPSRPNRAPPGVPSLGAWRLNSPQGKHENRAGKARL
B6: Arhgap26 (protein, UniProt Q6ZQ82 1-814)
chain: MGLPALEFSDCCLDSPHFRETLKSHEAELDKTNKFIKELIKDGKSLISALKNLSSAKRKFADSLNEFKFQCIGDAETDDEMCIARSLQEFAAVLRNLEDERSRMIENASEVLITPLEKFRKEQIGAAREAKKKYDKETEKYCGTLEKHLNLSSKKKESQLQEADSQVDLVRQHFYEVSLEYVFKVQEVQERKMFEFVEPLLAFLQGLFTFYHHGYELAKDFGDFKTQLTISIQNTRNRFEGTRSEVESLMKKMKENPLEHKTISPYTMEGYLYVQEKRHFGTSWVKHYCTYQRDSKQITMVPFDQKSGGKGGEDESVTLKSCTRRKTDSIEKRFCFDVEAVDRPGVITMQALSEEDRRLWMEAMDGREPVYNSNRDSQSEGTAQLDSIGFSIIRKCIHAVETRGINEQGLYRIVGVNSRVQKLLSVLMDPKAASETETDICAEWEIKTVTSALKTYLRMLPGPLMMYQFQRSFIKAAKLENQETRVSEIHSLVHRLPEKNRQMLQLLMNHLANVANNHKQNLMTVANLGVVFGPTLLRPQEETVAAIMDIKFQNIVIEILIENHEKIFNTVPDVPLTNAQLHLSRKKSSDSKPPSCSKRPLTLFHAVPSTEKQEQRNSIINSSLESVSSSANSILNSSSSLQPNLNSSDSNLDVVKPSRPSSLPPNPSPTSPLSPSWPMFSAPSSPMPTSSTSSDSSPIRSVAGFVWFSVAAVVLSLAWSSLHAVFSLLVNFVPCHPNLHLLFDRPEEAVREDSSTPFRKAKALYACQAEHDSELSFTAGTVFDNVHPSQEPGWLEGTLNGKTGLIPENYVEFL
B7: serine/threonine-protein kinase DCLK1 (enzyme, UniProt Q9JLM8 1-756)
chain: MSFGRDMELEHFDERDKAQRYSRGSRVNGLPSPTHSAHCSFYRTRTLQTLSSEKKAKKVRFYRNGDRYFKGIVYAISPDRFRSFEALLADLTRTLSDNVNLPQGVRTIYTIDGLKKISSLDQLVEGESYVCGSIEPFKKLEYTKNVNPNWSVNVKTTSASRAVSSLATAKGGPSEVRENKDFIRPKLVTIIRSGVKPRKAVRILLNKKTAHSFEQVLTDITDAIKLDSGVVKRLYTLDGKQVMCLQDFFGDDDIFIACGPEKFRYQDDFLLDESECRVVKSTSYTKIASASRRGTTKSPGPSRRSKSPASTSSVNGTPGSQLSTPRSGKSPSPSPTSPGSLRKQRISQHGGSSTSLSSTKVCSSMDENDGPGEGDELGRRHSLQRGWRREESEEGFQIPATITERYKVGRTIGDGNFAVVKECIERSTAREYALKIIKKSKCRGKEHMIQNEVSILRRVKHPNIVLLIEEMDVPTELYLVMELVKGGDLFDAITSTSKYTERDASGMLYNLASAIKYLHSLNIVHRDIKPENLLVYEHQDGSKSLKLGDFGLATIVDGPLYTVCGTPTYVAPEIIAETGYGLKVDIWAAGVITYILLCGFPPFRGSGDDQEVLFDQILMGQVDFPSPYWDNVSDSAKELINMMLLVNVDQRFSAVQVLEHPWVNDDGLPENEHQLSVAGKIKKHFNTGPKPSSTAAGVSVIATTALDKERQVFRRRRNQDVRSRYKAQPAPPELNSESEDYSPSSSETVRSPNSPF
B8: CCT4 (protein, UniProt P80315 1-539)
chain: MPENVASRSGAPTAGPGSRGKSAYQDRDKPAQIRFSNISAAKAVADAIRTSLGPKGMDKMIQDGKGDVTITNDGATILKQMQVLHPAARMLVELSKAQDIEAGDGTTSVVIIAGSLLDSCTKLLQKGIHPTIISESFQKALEKGLEILTDMSRPVQLSDRETLLNSATTSLNSKVVSQYSSLLSPMSVNAVMKVIDPATATSVDLRDIKIVKKLGGTIDDCELVEGLVLTQKVANSGITRVEKAKIGLIQFCLSAPKTDMDNQIVVSDYAQMDRVLREERAYILNLVKQIKKTGCNVLLIQKSILRDALSDLALHFLNKMKIMVVKDVEREDIEFICKTIGTKPVAHIDQFTADMLGSAELAEEVSLNGSGKLFKITGCTSPGKTVTIVVRGSNKLVIEEAERSIHDALCVIRCLVKKRALIAGGGAPEIELALRLTEYSRTLSGMESYCVRAFADAMEVIPSTLAENAGLNPISTVTELRNRHAQGEKTTGINVRKGGISNILEEMVVQPLLVSVSALTLATETVRSILKIDDVVNTR
B9: 2’,3’-cyclic-nucleotide 3’-phosphodiesterase (enzyme, UniProt P16330 1-420)
chain: MNTSFTRKSHTFLPKLFFRKMSSSGAKEKPELQFPFLQDEDTVATLHECKTLFILRGLPGSGKSTLARLILEKYHDGTKMVSADAYKIIPGSRADFSEAYKRLDEDLAGYCRRDIRVLVLDDTNHERERLDQLFEMADQYQYQVVLVEPKTAWRLDCAQLKEKNQWQLSADDLKKLKPGLEKDFLPLYFGWFLTKKSSETLRKAGQVFLEELGNHKAFKKELRHFISGDEPKEKLELVSYFGKRPPGVLHCTTKFCDYGKAAGAEEYAQQEVVKRSYGKAFKLSISALFVTPKTAGAQVVLTDQELQLWPSDLDKPSASEGLPPGSRAHVTLGCAADVQPVQTGLDLLDILQQVKGGSQGEAVGELPRGKLYSLGKGRWMLSLTKKMEVKAIFTGYYGKGKPVPIHGSRKGGAMQICTII

Biological target: phosphoY458 Kv1.2 (mouse) (UniProt P63141)
Assay: affinity purification with mass spectrometry

| binding | Binder |
| --- | --- |
| binds | B1 |
| binds | B2 |
| binds | B3 |
| binds | B4 |
| binds | B5 |
| binds | B6 |
| binds | B7 |
| binds | B8 |
| binds | B9 |
